In article PMC11397430:
Results are given in words; binding and its absence hold for the method and conditions named. In cells and extracts the contact can be indirect. Some binding calls cover weakened binding; strength is not graded here.

Chains of the proteins cited; added tags and fusions are not shown.
UniProt Q96GC6: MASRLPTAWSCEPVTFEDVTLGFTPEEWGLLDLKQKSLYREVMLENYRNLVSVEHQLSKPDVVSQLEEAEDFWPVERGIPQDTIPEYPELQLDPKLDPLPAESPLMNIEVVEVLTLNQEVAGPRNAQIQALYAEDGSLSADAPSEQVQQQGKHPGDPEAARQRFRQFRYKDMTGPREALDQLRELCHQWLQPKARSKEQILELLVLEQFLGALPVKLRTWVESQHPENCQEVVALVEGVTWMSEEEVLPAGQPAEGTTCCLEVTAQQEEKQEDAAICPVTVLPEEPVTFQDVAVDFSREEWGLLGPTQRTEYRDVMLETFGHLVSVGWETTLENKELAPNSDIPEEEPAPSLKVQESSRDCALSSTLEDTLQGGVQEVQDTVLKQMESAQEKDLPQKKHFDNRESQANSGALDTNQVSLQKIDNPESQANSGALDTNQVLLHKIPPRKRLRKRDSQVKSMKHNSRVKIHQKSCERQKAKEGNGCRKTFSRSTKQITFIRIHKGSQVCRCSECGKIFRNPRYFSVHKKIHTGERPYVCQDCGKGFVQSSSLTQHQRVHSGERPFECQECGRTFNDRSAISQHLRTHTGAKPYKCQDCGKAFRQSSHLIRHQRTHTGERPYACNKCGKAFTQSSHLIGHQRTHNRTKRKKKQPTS

Biological target: ZNF274, full length, HA-tagged (ZNF274-HA); a Flag-tagged copy was coexpressed for the co-IP (human) (UniProt Q96GC6)
Test: co-IP; HEK293T cells cotransfected with HA- and Flag-tagged ZNF274 constructs, 24 h with doxycycline; lysis in IP buffer (0.5% NP-40, 500 mM Tris pH 7.4, 20 mM EDTA); anti-Flag Sepharose or anti-HA magnetic beads overnight at 4°C; immunoblot for HA, Flag and KAP1

binding: binds
Substance: ZNF274, full length, HA-tagged (ZNF274-HA); a Flag-tagged copy was coexpressed for the co-IP (from UniProt Q96GC6 1-653)
